Key:
in vivo [1] = details: dog, po, 5 mg/kg
in vivo [2] = details: dog, po, 5 mg/kg; remark: listed apart in the source
in vivo [3] = details: rat, po, 20 mg/kg
in vivo [4] = details: dog, po, 5 mg/kg; remark: listed apart in the source
in vivo [5] = details: primates, po, 25 mg/kg
in vivo [6] = details: rat, po, 20 mg/kg; remark: listed apart in the source
in vivo [7] = details: simiiformes, plasma, po, 25 mg/kg
in vivo [8] = details: simiiformes, po, 25 mg/kg
in vivo [9] = details: rat, po, 20 mg/kg; remark: listed apart in the source
in vivo [10] = details: rat, po, 5 mg/kg
in vivo [11] = details: dog, po, 5 mg/kg; remark: listed apart in the source
in vivo [12] = details: simiiformes, plasma, po, 5 mg/kg
in vivo [13] = assay: in vivo
in vivo [14] = details: dog, po, 5 mg/kg; remark: listed apart in the source
in vivo [15] = details: dog, po, 5 mg/kg; remark: listed apart in the source
in vivo [16] = details: primates, po, 5 mg/kg
in vivo [17] = details: rat, po, 5 mg/kg; remark: listed apart in the source
in vivo [18] = details: simiiformes, po, 5 mg/kg

Row | SMILES | AUC (in vivo [1]) | Cmax (in vivo [2]) | Cmax (in vivo [3]) | bioavailability (in vivo [4]) | bioavailability (in vivo [5]) | AUC (in vivo [6]) | AUC (in vivo [7]) | Cmax (in vivo [8]) | bioavailability (in vivo [9]) | bioavailability (in vivo [10]) | AUC (in vivo [11]) | AUC (in vivo [12]) | Cmax (in vivo [13]) | Cmax (in vivo [14]) | bioavailability (in vivo [15]) | bioavailability (in vivo [16]) | AUC (in vivo [17]) | Cmax (in vivo [18])
1 | COc1cc2c(N3CCN(C(=O)Nc4ccc(OC(C)C)cc4)CC3)ncnc2cc1OCCCN1CCC(C)CC1 | 696 ng·h/mL | 113 ng/mL | 82.3 ng/mL | 65.1% | 40% | 1150 ng·h/mL | 16100 ng·h/mL | 703 ng/mL | 24.6% | – | – | – | – | – | – | – | – | –
2 | COCCOc1cc2ncnc(N3CCN(C(=O)Nc4ccc(OC(C)C)cc4)CC3)c2cc1OC | – | – | – | – | – | – | – | – | – | 72.1% | 4250 ng·h/mL | 1250 ng·h/mL | 762 ng/mL | 1500 ng/mL | 73.6% | 26.6% | 1580 ng·h/mL | 636 ng/mL
